The target of experiment [1] is phasin PhaP (CCNA_02242) (Caulobacter crescentus). Kind of experiment: SPR. For orientation: Surface plasmon resonance follows binding to a sensor surface in real time, without labels.
Experiment [2] concerns the target PHB polymerase PhaC (CCNA_01444), full-length (Caulobacter crescentus). Kind of experiment: SPR.

Sequences of proteins named here, by UniProt entry; tags and fusion partners are left off. A change or cut given only in a name is not applied to a line headed by its entry.
UniProt A0A0H3C9D4: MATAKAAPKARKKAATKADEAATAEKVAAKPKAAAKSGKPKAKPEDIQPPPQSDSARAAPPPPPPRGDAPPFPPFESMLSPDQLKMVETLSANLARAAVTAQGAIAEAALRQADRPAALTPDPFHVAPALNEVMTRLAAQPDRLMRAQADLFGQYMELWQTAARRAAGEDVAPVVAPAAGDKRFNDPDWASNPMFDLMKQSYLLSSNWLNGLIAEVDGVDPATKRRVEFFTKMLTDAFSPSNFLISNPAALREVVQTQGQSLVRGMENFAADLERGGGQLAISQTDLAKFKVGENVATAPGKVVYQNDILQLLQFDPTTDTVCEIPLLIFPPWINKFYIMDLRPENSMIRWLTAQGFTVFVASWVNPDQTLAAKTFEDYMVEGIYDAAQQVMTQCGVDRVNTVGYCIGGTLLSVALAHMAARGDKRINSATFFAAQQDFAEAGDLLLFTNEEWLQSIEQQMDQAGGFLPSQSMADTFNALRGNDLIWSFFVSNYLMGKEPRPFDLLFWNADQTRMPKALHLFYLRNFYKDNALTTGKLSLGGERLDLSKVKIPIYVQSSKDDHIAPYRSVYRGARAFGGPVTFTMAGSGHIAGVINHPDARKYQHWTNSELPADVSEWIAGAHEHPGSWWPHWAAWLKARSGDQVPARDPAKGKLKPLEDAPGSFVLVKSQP

Results are given in words; binding and its absence hold for the method and conditions named. A result given as binding can be weak or reduced; the word gives no strength.

Consider “PHB polymerase PhaC (CCNA_01444), full-length (from UniProt A0A0H3C9D4) (enzyme)”, for which, in experiment [1], the binding result is given as “binds”.

For the substance “phasin PhaP (CCNA_02242) (from UniProt A0A0H3CBK2)”, the binding entry in experiment [2] is “binds”.

The values are drawn from article doi:10.1101/2023.07.06.548030.
